Experimental data: PubChem BioAssay AID1259405 (NCATS, 2018)
The deposit covers about 50,000 reagents; this is a part drawn at random. About 4,000 of them (8%) count as active. 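Mouse siRNA library applied to hamster cells; one well for each siRNA.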 The numbers tell different reagents against one gene apart. Reagent sequences are not shown.

Screen: 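Knock-downs that lift recombinant protein yield in hamster ovary cells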 (primary screen)
Cells: Chinese hamster CHO-K1 ovary cells with stable secreted eGFP expression
Reagent: single siRNA against mouse genes, 0.8 pmol siRNA per well (2 µl of 400 nM stock)
Timing: 3 days
Detection: 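Per-well intracellular GFP measured by laser scanning cytometry, plus viability from ATP luminescence, each relative to plate median of non-targeting control wells, in %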
Reading the numbers: GFP, % of control: higher = more GFP per well, higher productivity; viability (ATP), % of control: higher = more viable cells (more ATP)
Hit rule: 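a knock-down is called active if GFP reaches 120% or more of non-targeting control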

Depletion of Pigyl #1 resulted in: GFP, % of control 111; viability (ATP), % of control 96.7; inactive. Knock-down of Pigyl #2 came out at: GFP, % of control 92.4; viability (ATP), % of control 75.8; inactive. Against Pigyl #3, the values are GFP, % of control 69.5; viability (ATP), % of control 89; inactive. Silencing of Snap91 #1 came out at: GFP, % of control 123; viability (ATP), % of control 79.2; active. Knock-down of Snap91 #2 gave: GFP, % of control 109; viability (ATP), % of control 64.3; inactive. After knock-down of Snap91 #3 the results were GFP, % of control 68.8; viability (ATP), % of control 86.7; inactive.

Depletion of Or4p18 #1 gave: GFP, % of control 68.3; viability (ATP), % of control 78.2; inactive. After knock-down of Or4p18 #2, the record shows GFP, % of control 79.2; viability (ATP), % of control 83; inactive. With knock-down of Or4p18 #3, the screen gave GFP, % of control 48.8; viability (ATP), % of control 67.6; inactive. After knock-down of Bcl11b #1, the screen gave GFP, % of control 109; viability (ATP), % of control 85.9; inactive. Silencing of Bcl11b #2 came out at: GFP, % of control 71.9; viability (ATP), % of control 60.2; inactive. After knock-down of Ehbp1l1 #1, the screen gave GFP, % of control 55.1; viability (ATP), % of control 69.2; inactive.

For Ehbp1l1 #2 the deposit lists GFP, % of control 70.6; viability (ATP), % of control 90.6; inactive. Ehbp1l1 #3 scored GFP, % of control 55.5; viability (ATP), % of control 82.1; inactive. Knock-down of Tanc2 #1 came out at: GFP, % of control 91.3; viability (ATP), % of control 81.6; inactive. After knock-down of Tanc2 #2, the record shows GFP, % of control 92.3; viability (ATP), % of control 77.1; inactive. Tanc2 #3 showed GFP, % of control 130; viability (ATP), % of control 135; active. Depletion of Cep20 #1 came out at: GFP, % of control 115; viability (ATP), % of control 101; inactive.

After knock-down of Cep20 #2, the screen gave GFP, % of control 52.9; viability (ATP), % of control 64.1; inactive. Knock-down of Cep20 #3 came out at: GFP, % of control 128; viability (ATP), % of control 104; active. Dkkl1 #1 showed GFP, % of control 68.8; viability (ATP), % of control 80.6; inactive. With knock-down of Dkkl1 #2, the screen gave GFP, % of control 132; viability (ATP), % of control 73.7; active. Dkkl1 #3 gave GFP, % of control 55.9; viability (ATP), % of control 55.2; inactive. Tmem185b #1 scored GFP, % of control 55.2; viability (ATP), % of control 66.3; inactive.

Silencing of Tmem185b #2 gave: GFP, % of control 67.4; viability (ATP), % of control 29.8; inactive. Tmem185b #3 gave GFP, % of control 71.1; viability (ATP), % of control 65.1; inactive. Silencing of Mettl8 #1 gave: GFP, % of control 100; viability (ATP), % of control 49.2; inactive. With knock-down of Mettl8 #2, the screen gave GFP, % of control 76.6; viability (ATP), % of control 71.1; inactive. With knock-down of Mettl8 #3 the results were GFP, % of control 95; viability (ATP), % of control 76.4; inactive. Dcn #1 showed GFP, % of control 108; viability (ATP), % of control 84.4; inactive.

Dcn #2 scored GFP, % of control 51.4; viability (ATP), % of control 86; inactive. Silencing of Dcn #3 resulted in: GFP, % of control 84.7; viability (ATP), % of control 79.2; inactive. Knock-down of Or4c123 #1 gave: GFP, % of control 98.3; viability (ATP), % of control 72; inactive. Or4c123 #2 scored GFP, % of control 158; viability (ATP), % of control 59.6; active. With knock-down of Or4c123 #3, the record shows GFP, % of control 39.1; viability (ATP), % of control 87.6; inactive. For Vmn1r29 #1, the entry reads GFP, % of control 66.7; viability (ATP), % of control 79.3; inactive.

Depletion of Vmn1r29 #2 came out at: GFP, % of control 103; viability (ATP), % of control 75.2; inactive. For Vmn1r29 #3, the values are GFP, % of control 78.3; viability (ATP), % of control 93.3; inactive. Knock-down of Btbd7 #1 resulted in: GFP, % of control 33.9; viability (ATP), % of control 48.5; inactive. Btbd7 #2 scored GFP, % of control 83.3; viability (ATP), % of control 68.6; inactive. Silencing of Btbd7 #3 came out at: GFP, % of control 152; viability (ATP), % of control 102; active. Cacna1s #1 showed GFP, % of control 73.1; viability (ATP), % of control 78.8; inactive.

Against Cacna1s #2, the values are GFP, % of control 29.4; viability (ATP), % of control 30.9; inactive. For Cacna1s #3 the deposit lists GFP, % of control 97.6; viability (ATP), % of control 74.1; inactive. Against Gngt2 #1, the entry reads GFP, % of control 150; viability (ATP), % of control 70.3; active. Against Gngt2 #2, the entry reads GFP, % of control 90.5; viability (ATP), % of control 52.2; inactive. Silencing of Gngt2 #3 resulted in: GFP, % of control 84.8; viability (ATP), % of control 95.4; inactive. With knock-down of D17H6S56E-5 #1, the screen gave GFP, % of control 89; viability (ATP), % of control 90.3; inactive.

Depletion of D17H6S56E-5 #2 resulted in: GFP, % of control 58.8; viability (ATP), % of control 69.2; inactive. D17H6S56E-5 #3 scored GFP, % of control 159; viability (ATP), % of control 63.4; active. For Cdc42ep4 #1, the entry reads GFP, % of control 66.7; viability (ATP), % of control 86.3; inactive. After knock-down of Cdc42ep4 #2 the results were GFP, % of control 74.3; viability (ATP), % of control 35.5; inactive. Against Cdc42ep4 #3, the values are GFP, % of control 96.4; viability (ATP), % of control 99.9; inactive.

Just “viability (ATP), % of control”, for 3 of the entries above:
Or4p18 #2 = 83
Or4p18 #3 = 67.6
Bcl11b #1 = 85.9
